Source: PubChem BioAssay AID1224826 (NIAID, 2016)
Aim: 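Genes that change LPS-induced Tnf promoter activity in mouse macrophages when knocked down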 (primary screen). Cells: RAW264.7 G9 macrophages from mouse bearing reporters for p65 (GFP) and the Tnf promoter (mCherry). Knock-down reagent: siRNA pool against mouse genes, 100 nM. Duration: 16 h of LPS stimulation, after 2 days of siRNA transfection. Treatment: bacterial lipopolysaccharide (Salmonella minnesota R595), 10 ng/ml. Detection: 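Imaged Tnf reporter mCherry in nuclei, minus background, normalised per plate to the median and expressed as robust z-scores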. Scale: Tnf reporter robust z-score: higher = stronger Tnf promoter reporter signal after LPS. Rule for the call: 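a well counts as active at a score of -1.3 or below (Tlr4 knock-down control median) or above 3 (raised signal); controls and wells holding fewer than 50 cells are excluded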. Meaning of the calls: active = Tnf reporter clearly lowered or raised; inactive = no clear change in Tnf reporter.
In all, the deposit lists about 17,000 reagents; this is an unselected part. Over the whole deposit, about 1,110 (6.6%) are marked active. 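Active means lowered or raised reporter signal; replicate intensities are raw and not normalised per plate.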 Entries without a mark were called inactive. The numbers tell different reagents against one gene apart. Further read-outs or replicates are left out here. Reagent sequences are not shown.

gene symbol | reagent | Tnf reporter robust z-score | fewer than 50 cells in well
Mvb12a (GeneID 73711) | 1 | – | fewer than 50 cells per well; well left out of calls
Prrg2 (GeneID 65116) | 1 | 2.89 | enough cells in well
Gria1 (GeneID 14799) | 1 | 0.14 | enough cells in well
Gjb4 (GeneID 14621) | 1 | -0.41 | enough cells in well
Mepe (GeneID 94111) | 1 | 0.59 | enough cells in well
Zfp661 (GeneID 72180) | 1 | -0.89 | enough cells in well
Eif2b1 (GeneID 209354) | 1 | -0.11 | enough cells in well
Siglece (GeneID 83382) | 1 | 0.11 | enough cells in well
Rnaseh2c (GeneID 68209) | 1 | -0.31 | enough cells in well
Pde4dip (GeneID 83679) | 1 | -0.32 | enough cells in well
Pde4dip (GeneID 83679) | 2 | 0.02 | enough cells in well
Pde4dip (GeneID 83679) | 3 | -0.31 | enough cells in well
Ido2 (GeneID 209176) | 1 | 0.01 | enough cells in well
Prss12 (GeneID 19142) | 1 | -0.67 | enough cells in well
Klhdc4 (GeneID 234825) | 1 | -0.8 | enough cells in well
Or10j3b (GeneID 258881) | 1 | -0.86 | enough cells in well
Or4a70 (GeneID 258970) | 1 | 1.86 | enough cells in well
Tmem242 (GeneID 70544) | 1 | 1.48 | enough cells in well
Clcf1 (GeneID 56708) | 1 | – | fewer than 50 cells per well; well left out of calls
Chchd6 (GeneID 66098) | 1 | 0.79 | enough cells in well
Klf16 (GeneID 118445) | 1 | -0.76 | enough cells in well
Gltp (GeneID 56356) | 1 | 1.22 | enough cells in well
Thpo (GeneID 21832) | 1 | 0.85 | enough cells in well
Wnt10a (GeneID 22409) | 1 | -0.05 | enough cells in well
Gna12 (GeneID 14673) | 1 | 1.34 | enough cells in well
Sarnp (GeneID 66118) | 1 | – | fewer than 50 cells per well; well left out of calls
Cd320 (GeneID 54219) | 1 | -0.46 | enough cells in well
Csn1s2b (GeneID 12992) | 1 | -0.48 | enough cells in well
Cd84 (GeneID 12523) | 1 | -0.13 | enough cells in well
Tfdp1 (GeneID 21781) | 1 | -0.07 | enough cells in well
Gpsm2 (GeneID 76123) | 1 | 1.39 | enough cells in well
Gpx7 (GeneID 67305) | 1 | -0.07 | enough cells in well
Tbc1d5 (GeneID 72238) | 1 | 0.66 | enough cells in well
Sema3d (GeneID 108151) | 1 | 1.01 | enough cells in well
Mlx (GeneID 21428) | 1 | 1.28 | enough cells in well
Samd10 (GeneID 229011) | 1 | 2.53 | enough cells in well
Akr1b7 (GeneID 11997) | 1 | -0.93 | enough cells in well
Mettl3 (GeneID 56335) | 1 | -0.63 | enough cells in well
Ptf1a (GeneID 19213) | 1 | -1.78 (active) | enough cells in well
Adgrv1 (GeneID 110789) | 1 | 0.49 | enough cells in well
Slc25a39 (GeneID 68066) | 1 | – | fewer than 50 cells per well; well left out of calls
Plet1 (GeneID 76509) | 1 | -0.27 | enough cells in well
Ran (GeneID 19384) | 1 | – | fewer than 50 cells per well; well left out of calls
Mrpl15 (GeneID 27395) | 1 | 0.99 | enough cells in well
Pigb (GeneID 55981) | 1 | -0.86 | enough cells in well
Dlk1 (GeneID 13386) | 1 | -0.35 | enough cells in well
Stmn3 (GeneID 20262) | 1 | -0.71 | enough cells in well
Adm (GeneID 11535) | 1 | 2.62 | enough cells in well
Fgd5 (GeneID 232237) | 1 | 0.97 | enough cells in well
Podxl (GeneID 27205) | 1 | – | fewer than 50 cells per well; well left out of calls
H2-DMb2 (GeneID 15000) | 1 | -0.61 | enough cells in well
Rps4l (GeneID 66184) | 1 | 0.09 | enough cells in well
Proser1 (GeneID 212127) | 1 | 1.74 | enough cells in well
St3gal1 (GeneID 20442) | 1 | -0.39 | enough cells in well
Vmn1r28 (GeneID 171198) | 1 | 3.74 (active) | enough cells in well
Hspe1 (GeneID 15528) | 1 | -1.01 | enough cells in well
Brd7 (GeneID 26992) | 1 | 1.35 | enough cells in well
Cenpt (GeneID 320394) | 1 | -1.6 (active) | enough cells in well
